# Data reported in the supplement of paper PMC10849652.
# Chains of the proteins cited; added tags and fusions are not shown. Lines headed by an entry give the natural chain unless they say otherwise; changes in a name come on top.
# UniProt Q29RF7: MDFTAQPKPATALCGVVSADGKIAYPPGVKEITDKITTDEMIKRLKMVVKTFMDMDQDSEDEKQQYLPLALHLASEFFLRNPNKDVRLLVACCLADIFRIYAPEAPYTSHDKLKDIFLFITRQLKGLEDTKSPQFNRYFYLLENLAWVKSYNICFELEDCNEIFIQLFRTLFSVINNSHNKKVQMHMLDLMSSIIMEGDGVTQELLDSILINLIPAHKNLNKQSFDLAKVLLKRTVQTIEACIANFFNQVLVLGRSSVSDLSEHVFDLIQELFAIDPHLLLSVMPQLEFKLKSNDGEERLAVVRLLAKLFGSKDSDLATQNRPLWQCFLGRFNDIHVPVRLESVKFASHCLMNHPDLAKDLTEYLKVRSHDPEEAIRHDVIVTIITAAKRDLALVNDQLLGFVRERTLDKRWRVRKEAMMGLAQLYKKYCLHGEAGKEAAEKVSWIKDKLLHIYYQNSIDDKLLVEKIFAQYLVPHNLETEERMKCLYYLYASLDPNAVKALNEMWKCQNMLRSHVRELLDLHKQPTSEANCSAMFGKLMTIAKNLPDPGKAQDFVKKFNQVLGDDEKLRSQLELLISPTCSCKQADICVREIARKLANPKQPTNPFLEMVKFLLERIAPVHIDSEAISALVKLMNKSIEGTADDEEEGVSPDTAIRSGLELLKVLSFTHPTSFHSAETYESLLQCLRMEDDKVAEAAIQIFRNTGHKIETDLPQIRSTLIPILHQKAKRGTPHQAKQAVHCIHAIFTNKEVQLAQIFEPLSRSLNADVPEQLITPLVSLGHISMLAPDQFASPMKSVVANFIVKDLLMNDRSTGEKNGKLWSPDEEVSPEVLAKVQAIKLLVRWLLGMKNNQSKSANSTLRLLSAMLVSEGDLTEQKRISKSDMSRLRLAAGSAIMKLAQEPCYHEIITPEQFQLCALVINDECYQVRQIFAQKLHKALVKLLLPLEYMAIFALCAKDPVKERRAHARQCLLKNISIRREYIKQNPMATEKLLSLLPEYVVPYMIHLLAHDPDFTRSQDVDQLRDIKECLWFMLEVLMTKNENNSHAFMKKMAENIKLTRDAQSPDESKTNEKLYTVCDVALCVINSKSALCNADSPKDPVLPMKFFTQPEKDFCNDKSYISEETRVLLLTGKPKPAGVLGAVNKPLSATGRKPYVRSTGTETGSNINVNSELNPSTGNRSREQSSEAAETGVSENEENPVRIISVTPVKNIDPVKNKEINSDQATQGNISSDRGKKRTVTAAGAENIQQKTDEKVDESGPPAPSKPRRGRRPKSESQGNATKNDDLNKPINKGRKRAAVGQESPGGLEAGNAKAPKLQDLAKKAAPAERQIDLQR
# UniProt H7BZJ3: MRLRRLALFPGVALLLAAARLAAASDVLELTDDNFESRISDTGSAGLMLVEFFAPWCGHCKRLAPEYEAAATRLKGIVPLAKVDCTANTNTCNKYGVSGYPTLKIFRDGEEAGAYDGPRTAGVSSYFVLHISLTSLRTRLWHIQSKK
# UniProt Q6L8Q7: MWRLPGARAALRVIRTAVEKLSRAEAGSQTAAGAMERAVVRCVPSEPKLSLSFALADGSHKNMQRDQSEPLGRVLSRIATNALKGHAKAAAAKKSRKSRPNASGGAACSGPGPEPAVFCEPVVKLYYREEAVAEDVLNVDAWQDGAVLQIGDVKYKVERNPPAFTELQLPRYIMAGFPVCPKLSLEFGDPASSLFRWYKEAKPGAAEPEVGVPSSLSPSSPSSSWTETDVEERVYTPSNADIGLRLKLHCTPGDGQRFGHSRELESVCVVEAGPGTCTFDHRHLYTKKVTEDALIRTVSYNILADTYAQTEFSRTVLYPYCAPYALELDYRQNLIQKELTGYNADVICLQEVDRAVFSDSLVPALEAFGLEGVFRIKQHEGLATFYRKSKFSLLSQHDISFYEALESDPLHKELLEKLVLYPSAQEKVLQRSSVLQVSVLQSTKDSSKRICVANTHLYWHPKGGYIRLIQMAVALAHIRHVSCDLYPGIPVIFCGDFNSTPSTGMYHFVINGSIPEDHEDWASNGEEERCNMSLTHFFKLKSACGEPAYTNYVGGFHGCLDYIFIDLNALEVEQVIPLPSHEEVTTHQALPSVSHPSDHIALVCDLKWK
# UniProt P35227: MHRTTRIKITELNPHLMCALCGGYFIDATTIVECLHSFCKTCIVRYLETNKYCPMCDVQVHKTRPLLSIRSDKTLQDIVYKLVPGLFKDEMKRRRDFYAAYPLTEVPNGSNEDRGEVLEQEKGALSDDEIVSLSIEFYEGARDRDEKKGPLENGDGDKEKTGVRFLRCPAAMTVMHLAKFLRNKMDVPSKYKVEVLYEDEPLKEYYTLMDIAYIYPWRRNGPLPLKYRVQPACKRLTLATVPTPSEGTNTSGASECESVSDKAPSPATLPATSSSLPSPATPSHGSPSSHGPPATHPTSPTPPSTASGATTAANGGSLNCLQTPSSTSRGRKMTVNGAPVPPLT
# UniProt P49585: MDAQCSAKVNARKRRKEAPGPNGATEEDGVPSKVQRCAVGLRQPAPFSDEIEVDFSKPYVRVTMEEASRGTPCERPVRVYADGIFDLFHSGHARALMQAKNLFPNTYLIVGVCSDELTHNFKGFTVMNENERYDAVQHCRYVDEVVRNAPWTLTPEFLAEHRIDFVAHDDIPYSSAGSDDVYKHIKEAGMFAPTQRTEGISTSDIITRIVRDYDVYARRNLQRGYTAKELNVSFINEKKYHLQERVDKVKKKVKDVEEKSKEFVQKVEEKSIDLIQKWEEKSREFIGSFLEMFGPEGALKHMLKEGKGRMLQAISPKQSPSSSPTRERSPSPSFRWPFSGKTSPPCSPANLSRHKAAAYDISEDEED
# UniProt Q9HBH1: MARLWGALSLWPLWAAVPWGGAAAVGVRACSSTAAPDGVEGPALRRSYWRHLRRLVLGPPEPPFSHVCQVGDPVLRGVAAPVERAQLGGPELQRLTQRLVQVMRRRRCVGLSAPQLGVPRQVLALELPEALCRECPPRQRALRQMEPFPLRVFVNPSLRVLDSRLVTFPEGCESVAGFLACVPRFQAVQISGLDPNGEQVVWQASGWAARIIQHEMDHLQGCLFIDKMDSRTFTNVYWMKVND
# UniProt P09874, whole entry, looked up: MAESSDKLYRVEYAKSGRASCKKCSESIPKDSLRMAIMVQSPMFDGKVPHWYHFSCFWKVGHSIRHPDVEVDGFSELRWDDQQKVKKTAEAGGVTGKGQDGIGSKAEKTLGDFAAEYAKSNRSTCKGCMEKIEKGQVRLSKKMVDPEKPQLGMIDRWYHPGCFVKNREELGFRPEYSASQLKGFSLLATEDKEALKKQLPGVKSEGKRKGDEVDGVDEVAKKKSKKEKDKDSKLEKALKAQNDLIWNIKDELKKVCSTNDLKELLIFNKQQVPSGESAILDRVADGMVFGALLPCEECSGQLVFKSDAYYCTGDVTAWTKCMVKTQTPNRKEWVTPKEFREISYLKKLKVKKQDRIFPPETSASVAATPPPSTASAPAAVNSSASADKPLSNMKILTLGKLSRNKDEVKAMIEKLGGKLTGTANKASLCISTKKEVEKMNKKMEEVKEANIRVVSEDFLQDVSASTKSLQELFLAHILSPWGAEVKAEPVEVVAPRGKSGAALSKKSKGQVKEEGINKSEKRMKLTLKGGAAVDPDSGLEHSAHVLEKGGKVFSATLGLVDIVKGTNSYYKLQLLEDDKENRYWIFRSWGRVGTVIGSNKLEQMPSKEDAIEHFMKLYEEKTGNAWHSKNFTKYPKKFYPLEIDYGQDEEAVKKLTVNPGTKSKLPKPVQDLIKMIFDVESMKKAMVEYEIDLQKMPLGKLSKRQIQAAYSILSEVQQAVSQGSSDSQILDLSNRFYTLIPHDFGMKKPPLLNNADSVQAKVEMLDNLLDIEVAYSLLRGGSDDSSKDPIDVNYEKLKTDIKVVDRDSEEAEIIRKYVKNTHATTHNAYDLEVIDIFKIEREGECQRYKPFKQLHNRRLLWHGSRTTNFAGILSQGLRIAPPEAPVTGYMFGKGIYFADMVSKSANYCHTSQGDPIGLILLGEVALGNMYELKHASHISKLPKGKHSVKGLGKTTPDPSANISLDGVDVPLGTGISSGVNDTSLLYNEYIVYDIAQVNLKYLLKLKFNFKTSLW
# UniProt Q8N5Y8: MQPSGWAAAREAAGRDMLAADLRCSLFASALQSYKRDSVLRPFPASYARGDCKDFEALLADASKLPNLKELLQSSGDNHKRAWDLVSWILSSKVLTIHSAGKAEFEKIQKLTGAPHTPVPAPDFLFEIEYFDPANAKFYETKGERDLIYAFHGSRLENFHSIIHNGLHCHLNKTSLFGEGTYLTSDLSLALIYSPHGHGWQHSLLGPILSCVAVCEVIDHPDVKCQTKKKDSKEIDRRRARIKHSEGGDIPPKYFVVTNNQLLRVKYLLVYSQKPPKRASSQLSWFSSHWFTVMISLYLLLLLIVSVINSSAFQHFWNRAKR
# UniProt P27815: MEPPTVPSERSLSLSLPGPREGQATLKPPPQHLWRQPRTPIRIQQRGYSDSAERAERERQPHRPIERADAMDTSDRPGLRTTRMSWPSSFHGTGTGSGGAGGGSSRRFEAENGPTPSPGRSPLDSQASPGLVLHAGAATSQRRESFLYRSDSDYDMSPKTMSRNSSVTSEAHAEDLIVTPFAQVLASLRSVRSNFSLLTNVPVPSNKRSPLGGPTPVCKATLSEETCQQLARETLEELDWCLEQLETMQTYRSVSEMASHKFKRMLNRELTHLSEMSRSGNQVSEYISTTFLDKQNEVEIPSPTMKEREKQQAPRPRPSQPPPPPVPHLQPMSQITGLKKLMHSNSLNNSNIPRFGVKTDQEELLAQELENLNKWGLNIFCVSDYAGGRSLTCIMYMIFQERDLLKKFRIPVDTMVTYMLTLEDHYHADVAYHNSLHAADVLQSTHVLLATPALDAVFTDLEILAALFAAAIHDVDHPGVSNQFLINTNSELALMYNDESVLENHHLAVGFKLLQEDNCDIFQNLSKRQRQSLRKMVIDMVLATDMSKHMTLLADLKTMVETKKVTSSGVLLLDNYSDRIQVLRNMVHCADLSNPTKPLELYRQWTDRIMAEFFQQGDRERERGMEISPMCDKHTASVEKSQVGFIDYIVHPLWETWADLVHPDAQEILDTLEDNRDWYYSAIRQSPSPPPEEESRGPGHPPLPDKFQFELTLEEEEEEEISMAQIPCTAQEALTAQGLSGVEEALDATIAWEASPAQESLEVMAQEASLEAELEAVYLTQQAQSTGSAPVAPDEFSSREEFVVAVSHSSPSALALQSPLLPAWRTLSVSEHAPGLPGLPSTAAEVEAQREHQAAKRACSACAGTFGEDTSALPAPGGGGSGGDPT
# UniProt Q16875: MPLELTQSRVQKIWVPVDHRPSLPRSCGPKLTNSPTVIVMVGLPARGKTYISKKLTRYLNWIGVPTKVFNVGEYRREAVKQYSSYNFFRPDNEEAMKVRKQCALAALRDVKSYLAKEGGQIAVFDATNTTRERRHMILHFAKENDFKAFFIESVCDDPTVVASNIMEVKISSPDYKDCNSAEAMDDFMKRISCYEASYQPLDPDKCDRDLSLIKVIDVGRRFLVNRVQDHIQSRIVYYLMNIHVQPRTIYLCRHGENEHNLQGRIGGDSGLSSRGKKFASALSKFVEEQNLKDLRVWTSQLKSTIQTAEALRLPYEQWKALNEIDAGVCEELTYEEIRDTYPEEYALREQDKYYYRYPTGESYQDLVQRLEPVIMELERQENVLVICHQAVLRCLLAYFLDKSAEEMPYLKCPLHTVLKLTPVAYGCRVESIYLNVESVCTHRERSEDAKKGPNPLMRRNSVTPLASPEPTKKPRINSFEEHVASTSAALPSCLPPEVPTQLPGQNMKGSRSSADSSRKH
# UniProt O00764: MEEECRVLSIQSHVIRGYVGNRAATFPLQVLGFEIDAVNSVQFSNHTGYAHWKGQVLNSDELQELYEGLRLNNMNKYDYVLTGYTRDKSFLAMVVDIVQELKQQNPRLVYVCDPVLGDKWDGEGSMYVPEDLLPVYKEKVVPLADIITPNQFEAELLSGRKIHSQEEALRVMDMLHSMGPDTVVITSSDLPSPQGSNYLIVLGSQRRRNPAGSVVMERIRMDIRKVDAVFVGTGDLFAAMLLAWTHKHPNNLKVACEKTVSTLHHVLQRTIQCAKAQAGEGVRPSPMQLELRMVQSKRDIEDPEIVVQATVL
# UniProt P11177, whole entry, looked up: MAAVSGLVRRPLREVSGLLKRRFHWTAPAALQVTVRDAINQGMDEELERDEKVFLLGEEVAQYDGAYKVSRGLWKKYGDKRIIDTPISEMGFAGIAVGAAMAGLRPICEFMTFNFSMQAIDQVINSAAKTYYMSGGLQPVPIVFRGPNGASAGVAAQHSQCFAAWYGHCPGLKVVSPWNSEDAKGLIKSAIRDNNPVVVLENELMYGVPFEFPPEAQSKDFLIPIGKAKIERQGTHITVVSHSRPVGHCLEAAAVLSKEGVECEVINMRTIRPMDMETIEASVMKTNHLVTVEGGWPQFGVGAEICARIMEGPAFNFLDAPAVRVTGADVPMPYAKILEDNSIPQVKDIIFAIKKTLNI
# Some of the results follow.
# Columns and labels:
# Assay in all cases: log2 fold change, soluble protein after heating vs DMSO (PISA); higher = thermal stabilisation; K562 lysate, 10 uM; active = over 0.2 and 3.5 SD of the protein, either way, in both replicates (recomputed)
# nilotinib = compound: Cc1cn(-c2cc(NC(=O)c3ccc(C)c(Nc4nccc(-c5cccnc5)n4)c3)cc(C(F)(F)F)c2)cn1 [nilotinib]
# Summary of the method: (§1)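 K562 pellets were dounce-homogenised in PBS pH 7.4 containing 1 mM MgCl2, and the crude extract, at 1 mg/mL protein, was exposed to 10 μM compound for 30 min. Aliquots were heated for 3 min across 48°C-58°C, pooled, brought to 0.5% NP-40 at 4°C and spun at 21,000xg for 90 min, with the supernatant taken as soluble protein. TMTpro 16plex LC-MS/MS with equalised channel sums quantified that protein. Values are log-two fold changes in thermal stability relative to solvent controls, taken from duplicates.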
# [1] = compound: Cc1nc(Nc2n[nH]c3c2CN(C(=O)N[C@H](CN(C)C)c2ccccc2)C3(C)C)c2sccc2n1
# Summary of the method: as §1
# dasatinib = compound: Cc1nc(Nc2ncc(C(=O)Nc3c(C)cccc3Cl)s2)cc(N2CCN(CCO)CC2)n1 [dasatinib]
# Summary of the method: as §1
# [2] = compound: Cc1ncc(-c2ccnc(Nc3ccc(S(C)(=O)=O)cc3)n2)n1C(C)C
# Summary of the method: as §1
# [3] = compound: Cn1cc(-c2ccc3c(c2)CCN3C(=O)Cc2cccc(C(F)(F)F)c2)c2c(N)ncnc21
# Summary of the method: as §1
# quisinostat = compound: Cn1cc(CNCC2CCN(c3ncc(C(=O)NO)cn3)CC2)c2ccccc21 [quisinostat]
# Summary of the method: as §1
# tipifarnib = compound: Cn1cncc1[C@@](N)(c1ccc(Cl)cc1)c1ccc2c(c1)c(-c1cccc(Cl)c1)cc(=O)n2C [tipifarnib]
# Summary of the method: as §1
# [4] = compound: NC(=O)Nc1cc(-c2cccc(F)c2)sc1C(=O)N[C@H]1CCCNC1
# Summary of the method: as §1
# [5] = compound: NC(=O)c1cnc(N[C@@H]2CCCC[C@@H]2N)nc1Nc1cccc(-n2nccn2)c1
# Summary of the method: as §1
# [6] = compound: NC1(c2ccc(-c3nc4ccn5c(=O)[nH]nc5c4cc3-c3ccccc3)cc2)CCC1
# Summary of the method: as §1
# [7] = compound: NCC(=O)Nc1ccc(-n2nc(C(F)(F)F)cc2-c2ccc3c(ccc4ccccc43)c2)cc1
# Summary of the method: as §1
# vorinostat = compound: O=C(CCCCCCC(=O)Nc1ccccc1)NO [vorinostat]
# Summary of the method: as §1
# silmitasertib = compound: O=C(O)c1ccc2c(c1)nc(Nc1cccc(Cl)c1)c1ccncc12 [silmitasertib]
# Summary of the method: as §1
# [8] = compound: O=C1NC(=O)C(c2cnc3ccccn23)=C1c1cn2c3c(cc(F)cc13)CN(C(=O)N1CCCCC1)CC2
# Summary of the method: as §1
# entospletinib = compound: c1cn2cc(-c3ccc4cn[nH]c4c3)nc(Nc3ccc(N4CCOCC4)cc3)c2n1 [entospletinib]
# Summary of the method: as §1
Target,log2 fold change (nilotinib),log2 fold change [1],log2 fold change (dasatinib),log2 fold change [2],log2 fold change [3],log2 fold change (quisinostat),log2 fold change (tipifarnib),log2 fold change [4],log2 fold change [5],log2 fold change [6],log2 fold change [7],log2 fold change (vorinostat),log2 fold change (silmitasertib),log2 fold change [8],log2 fold change (entospletinib)
PCM1 (UniProt Q15154),inactive: -0.024,inactive: -0.012,inactive: -0.012,inactive: 0.019,inactive: 0.036,inactive: -0.077,inactive: 0.008,inactive: 0.022,inactive: 0.016,inactive: 0.041,inactive: 0.018,inactive: -0.045,inactive: 0.032,inactive: 0.015,inactive: 0
PDS5A (UniProt Q29RF7),inactive: -0.013,inactive: -0.002,inactive: -0.081,inactive: -0.003,inactive: 0.008,inactive: -0.113,inactive: 0.001,inactive: 0.047,inactive: 0.011,inactive: -0.023,inactive: -0.001,active: -0.525,inactive: 0.073,inactive: -0.01,inactive: 0.047
PDIA3 (UniProt H7BZJ3),inactive: -0.031,inactive: 0.046,inactive: 0.024,inactive: 0.18,inactive: -0.122,inactive: 0.004,inactive: -0.021,inactive: -0.085,inactive: 0.013,inactive: 0.097,inactive: 0.051,inactive: 0.103,inactive: 0.161,inactive: 0.043,inactive: 0.117
PDE12 (UniProt Q6L8Q7),inactive: 0.05,inactive: 0.006,inactive: -0.055,inactive: 0.078,inactive: 0.013,inactive: -0.003,inactive: -0.028,inactive: 0.018,inactive: 0.003,inactive: -0.014,inactive: -0.007,inactive: 0.014,inactive: 0.001,inactive: 0.005,inactive: 0.041
PCGF2 (UniProt P35227),inactive: -0.072,inactive: 0.046,inactive: 0.042,inactive: -0.048,inactive: 0.007,inactive: -0.011,inactive: 0.035,inactive: 0.027,inactive: -0.065,inactive: 0.092,inactive: 0.028,inactive: -0.047,inactive: 0.031,inactive: -0.033,inactive: -0.091
PCLO (UniProt Q9Y6V0),inactive: 0.041,inactive: -0.097,inactive: 0.068,inactive: 0.106,inactive: -0.023,inactive: -0.157,inactive: 0.019,inactive: 0.177,inactive: 0.003,inactive: -0.093,inactive: 0.126,inactive: 0.137,inactive: -0.014,inactive: 0.125,inactive: 0.027
PCYT1A (UniProt P49585),inactive: -0.14,inactive: 0.042,inactive: 0.04,inactive: -0.001,inactive: -0.019,inactive: 0.056,inactive: -0.006,inactive: -0.032,inactive: -0.029,inactive: 0.007,inactive: 0.032,inactive: 0.023,inactive: -0.012,inactive: -0.124,inactive: 0.055
PDE2A (UniProt O00408),inactive: 0.021,inactive: -0.033,inactive: 0.042,inactive: -0.008,inactive: 0.035,inactive: 0.026,inactive: 0.042,inactive: 0.006,inactive: 0.08,inactive: -0.184,inactive: 0.195,inactive: 0.117,inactive: 0.022,inactive: 0.071,inactive: 0.01
PDCD2 (UniProt Q16342),inactive: 0.07,inactive: 0.065,inactive: -0.009,inactive: 0.071,inactive: 0.031,inactive: 0.001,inactive: -0.011,inactive: 0.027,inactive: 0.038,inactive: -0.025,inactive: 0.005,inactive: -0.093,inactive: 0.005,inactive: -0.035,inactive: 0.014
PFKL isoform 2 (UniProt P17858),inactive: 0.002,inactive: 0.006,inactive: -0.007,inactive: 0.012,inactive: -0.011,inactive: -0.085,inactive: -0.034,inactive: 0.03,inactive: -0.003,inactive: -0.047,inactive: 0.014,inactive: -0.044,inactive: -0.03,inactive: 0.03,inactive: 0.09
PBLD (UniProt P30039),inactive: 0.01,inactive: -0.036,inactive: 0.097,inactive: 0.04,inactive: -0.035,inactive: -0.126,inactive: 0.035,inactive: -0.03,inactive: 0.032,inactive: 0.005,inactive: 0.224,inactive: 0.044,inactive: -0.03,inactive: 0.037,inactive: 0.004
PDF (UniProt Q9HBH1),inactive: 0.014,inactive: 0.002,inactive: -0.037,inactive: 0.02,inactive: 0.067,inactive: -0.064,inactive: -0.012,inactive: 0.022,inactive: -0.034,inactive: 0.056,inactive: -0.095,inactive: -0.232,inactive: 0.044,inactive: 0,inactive: -0.004
PARP1 (UniProt P09874),inactive: -0.014,inactive: 0.012,inactive: -0.017,inactive: 0.009,inactive: 0.001,inactive: 0.029,inactive: 0.017,inactive: 0.015,inactive: -0.008,inactive: -0.001,inactive: -0.003,inactive: -0.205,inactive: 0.033,inactive: 0.004,inactive: 0.045
PARP16 isoform 3 (UniProt Q8N5Y8),inactive: -0.055,inactive: -0.036,inactive: -0.012,inactive: 0.051,inactive: 0.028,inactive: 0.039,inactive: 0.21,inactive: 0.021,inactive: 0.035,inactive: 0.049,inactive: -0.124,inactive: -0.137,inactive: 0,inactive: 0.034,inactive: -0.01
PDE4A (UniProt P27815),inactive: -0.277,inactive: -0.065,inactive: -0.005,inactive: 0.134,inactive: 0.198,inactive: -0.126,inactive: 0.027,inactive: 0.061,,inactive: -0.116,inactive: -0.118,inactive: -0.133,inactive: 0.023,inactive: -0.035,inactive: -0.017
PCBP2 (UniProt F8W0G4),inactive: 0.034,inactive: -0.092,inactive: -0.138,inactive: -0.154,inactive: 0,,inactive: -0.298,,,inactive: 0.053,inactive: 0.083,inactive: -0.058,inactive: 0.025,,inactive: -0.088
PFKFB3 isoform 4 (UniProt Q16875),inactive: 0.018,inactive: -0.023,inactive: -0.088,inactive: -0.021,inactive: 0.075,inactive: -0.012,inactive: 0.01,inactive: -0.025,inactive: -0.192,inactive: -0.001,inactive: 0.025,active: -0.34,inactive: 0.108,inactive: 0.017,inactive: -0.006
PDXK (UniProt O00764),inactive: 0.123,inactive: -0.031,inactive: 0.005,inactive: 0.055,inactive: -0.003,inactive: -0.03,inactive: 0.012,inactive: -0.008,inactive: -0.008,inactive: -0.023,inactive: -0.005,inactive: 0.073,inactive: -0.008,inactive: 0.026,inactive: -0.009
PDS5B (UniProt Q9NTI5),inactive: -0.01,inactive: 0.018,inactive: -0.033,inactive: 0.015,inactive: 0.019,inactive: 0.033,inactive: 0.009,inactive: 0.051,inactive: -0.002,inactive: 0.008,inactive: 0,inactive: -0.216,inactive: 0.037,inactive: 0.031,inactive: 0.023
PDHB (UniProt P11177),inactive: 0.011,inactive: -0.012,inactive: -0.036,inactive: 0.02,inactive: 0.019,inactive: -0.026,inactive: 0.022,inactive: 0.031,inactive: 0.015,inactive: 0.034,inactive: -0.02,inactive: -0.084,inactive: 0.037,inactive: 0.024,inactive: -0.001

# Look-ups from the list.
# In log2 fold change (quisinostat), PCYT1A (UniProt P49585) shows inactive: 0.056
# In log2 fold change [3], PARP1 (UniProt P09874) shows inactive: 0.001
